Data on one compound can be found in PMC6950218 (Journal of Medicinal Chemistry, 2011).

Regarding `NCC(=O)N1CCn2c(nc(-c3ccc(F)cc3)c2Nc2ccc(Cl)c(F)c2)C1` [Compound 31, 2-Amino-1-(3-(4-chloro-3-fluorophenylamino)-2-(4-fluorophenyl)-5,6-dihydroimidazo[1,2-a]pyrazin-7(8H)-yl)ethanone], the “PAMPA (% absorbed)” value was “low”.
